Measured values taken from patent US4684622A (SmithKline Beckman Corporation, priority 1986, dated 1987).

Experiment: general procedure: Boc solid-phase peptide synthesis; benzhydrylamine (BHA) resin; Merrifield resin; DCC/HBT (1-hydroxybenzotriazole)
Details: whole synthesis

| Substance | crude yield [%] | crude yield (one disulfide bridge, sequence written open) [%] |
| --- | --- | --- |
| d-Pen(4-MeBzl)-D-Tyr-(Et)-Phe-Gln-Asn-Cys(4-MeBzl)-Arg(Tos)-BHA-resin | 83.85 | – |
| dPen(4-MeBzl)-Tyr(Me)-Phe-Gln-Asn-Cys(4-MeBzl)-Arg(Tos)-BHA-resin | 75 | – |
| dPen-(4-MeBz)-Tyr(Me)-Phe-Gln-Asn-Cys(4-MeBz)-Arg(Tos)-BHA resin | 60 | – |
| Mpr(4-MeBzl)-D-Tyr-(Et)-Ile-Thr(OBzl)-Asn-Cys(4-MeBzl)-Arg(Tox)-Gly-BHA-R | – | 87.81 |
